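Genome-wide siRNA knockdown in TC32 Ewing sarcoma cells, comparing luciferase light from an NR0B1-promoter reporter with a CMV-promoter reporter 48 hours after transfection.
Each siRNA was applied at 20 nM.
A z-score of the log NR0B1-over-CMV signal, less the median of siRNAs with the same seed; more negative means a stronger specific loss of the NR0B1 reporter.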

The strongest results of the screen are mostly left out here.
Sequences are the guide (antisense) strand, without overhang.

* UAUGUCUCAAGGUCGCUUU against LEXM : seed-corrected z-score -0.7703
* UGAAUUUCAGGUGGAGGCG against BPIFB2 : seed-corrected z-score 0.1376
* UUGGUACUCGCGGAUCUGC against FGF17 : seed-corrected z-score 0.655
* UCGUAGUUCUCUGAGAGGC against NRROS : seed-corrected z-score -1.541
* UAGUUUGAUGUUGAGAUAC against LSM2 : seed-corrected z-score -0.8764
* UAUUCUCUCAGGGUAAAGC against ZSCAN25 : seed-corrected z-score 0.958
* AUCCGUCCAAGAAAGAGGC against FANCE : seed-corrected z-score 0.3653
* UGAGUUACACCAAUCAUAC against DHX40 : seed-corrected z-score -0.9736
* UGGACCAUCACGUCAAUGC against ATAD3B : seed-corrected z-score -0.1864
* UAAUCCUUUAUUUGGGUGG against TRABD : seed-corrected z-score 1.085
* UUGUUGUGAAUGUCUGAUG against UST : seed-corrected z-score -0.0164
* UUGGAGACAAUGACGGGCA against KCNA7 : seed-corrected z-score -0.5473
* UCAUCGGACAUGGAGUUGG against ITGB4 : seed-corrected z-score -0.7353
* UGUUGUACAAGCAACCAGC against LRP1 : seed-corrected z-score -0.09416
* UUUAGAAGUAUGCUCAUCU against C1orf52 : seed-corrected z-score 0.7781
* UGUAGUUGUGCCUAUAGUC against ASGR2 : seed-corrected z-score -0.4403
* UUCCUGGAGGGUAUAACAC against RPSAP48 : seed-corrected z-score 0.02292
* AUAGGUCCUAUGCAGAAGU against SPERT : seed-corrected z-score 0.4878
* AGUUUCUUGACGUCAGUGG against BAIAP2L2 : seed-corrected z-score -0.9292
* UCACUCUGCAUGAAGGAGA against TMEM160 : seed-corrected z-score 0.1383
* UAGCCGUCUAUGAAGGAUG against PTPRE : seed-corrected z-score 0.03623
* AACCGCUUCUCAUCUAUGG against INTS8 : seed-corrected z-score -0.7752
* AAAAGUAUUUCGGUUUUUC against ECRP : seed-corrected z-score 0.053
* UGGAUUUGUAGCUGUGACC against C10orf99 : seed-corrected z-score -0.4048
* UGUCUGAAAAGCUAGCGGC against ADGRA2 : seed-corrected z-score -0.1259
* UUAGGCUCAAGACUCCCAG against BRD2 : seed-corrected z-score 0.3102
* AACUUUCUCAUCAACGAUC against LARP1 : seed-corrected z-score -0.3689
* UCUUGUCCCAUGCUUAUCC against OTC : seed-corrected z-score -0.9292
* UAGUCAAUCAGCUCGGGCC against ACTN1 : seed-corrected z-score -0.8308
* UCCUCGAUCACAGCGGUCU against NACC2 : seed-corrected z-score -0.1321
* AGCGGUUUCAGGAACACUG against ADAR : seed-corrected z-score -1.53
* UUUCUAAGGACAUAUAAAG against SERTAD4 : seed-corrected z-score -0.5268
* UAAGGCUCCAAGAACUUGU against ATP1B2 : seed-corrected z-score 0.3773
* UUUUCUGUGAUGCAGUUGU against IQCF3 : seed-corrected z-score 0.06374
* UUUGAGGUAGGGUUGCUUU against CXXC5 : seed-corrected z-score 0.3585
* UCAGCGAAAUGAGCACGGG against CORO6 : seed-corrected z-score 0.8283
* UUUGCUAUCUUGGUUCGCC against PHF8 : seed-corrected z-score -0.4571

The first 4 entries again:

Sequence	target gene	seed-corrected z-score
UAUGUCUCAAGGUCGCUUU	LEXM	-0.7703
UGAAUUUCAGGUGGAGGCG	BPIFB2	0.1376
UUGGUACUCGCGGAUCUGC	FGF17	0.655
UCGUAGUUCUCUGAGAGGC	NRROS	-1.541

Data taken from PubChem BioAssay AID1159506, deposited by NCATS (2015).